Measured values as given in patent US8552068B2, “Compositions and methods” (priority 2004, dated 2013).
The name of at least one read-out is uncertain.

Test system: Artificially-ventilated pentobarbital anesthetised rabbits
Test: Intravenous infusion of carrier solutions saturated with pure nitric oxide gas; exhaled NO and MAP
Type: in vivo, rabbit
Details: infusion versus pre-infusion
Description: Male white New Zealand rabbits were subjected to different doses of an intravenous infusion of NO-substituted solutions at different doses. Several physiological parameters were measured during the experiments, including NO concentration in mixed exhaled gas (FENO).
Different carrier media solutions (table 1) were dissolved and diluted with saline or water to obtain different concentration of the solutions. The solution was then placed in a gas-tight chamber and deoxygenated by means of helium bubbling for 10 min. The glass chamber was then gassed with pure nitric oxide gas for 3-4 min.
Data are given as mean±SEM.

Structure (SMILES)	MAP, Change (%)	MAP, Change (absolute value)
NC(CO)CO [2-Amino-1,3-propanediol]	−17.0%	−13.2 cmH2O
C[C@H](O)[C@@H](O)[C@@H](O)[C@H](O)C=O [Fucose]	−35%	−32.4 cmH2O
